# Out of some 350,000 compounds screened, about 1,200 (0.34%) were called active. The inconclusive results got no clear call from the source; some entries with a clear call stand among them for comparison. Calls come from the whole dose curve; as a rule, active = well fitted inhibition curve with a large enough effect; inconclusive = small, poorly fitted or top-dose-only effect; inactive = no such curve, though single readings can be large or run the other way. A potency beside an inconclusive call is a rough fit, not a confirmed value.
# Chains of the proteins cited; added tags and fusions are not shown.
# UniProt P27695, whole entry, looked up: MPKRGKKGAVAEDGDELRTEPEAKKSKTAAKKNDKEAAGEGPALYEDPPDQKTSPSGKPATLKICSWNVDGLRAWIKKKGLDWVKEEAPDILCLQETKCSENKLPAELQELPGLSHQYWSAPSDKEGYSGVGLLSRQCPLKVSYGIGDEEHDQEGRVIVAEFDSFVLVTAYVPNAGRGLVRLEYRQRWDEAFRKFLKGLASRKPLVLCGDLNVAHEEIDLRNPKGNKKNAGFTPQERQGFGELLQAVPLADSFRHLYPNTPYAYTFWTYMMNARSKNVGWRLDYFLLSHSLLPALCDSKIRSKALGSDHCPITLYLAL
# Biological target: DNA repair nuclease/redox regulator APEX1 (Homo sapiens) (UniProt P27695)
# Test: qHTS Assay for Inhibitors of the Human Apurinic/apyrimidinic Endonuclease 1 (APE1); note: nearly all actives have a fitted effect of over 55% in size;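 for activity change, negative = inhibition: plate controls were vehicle for no effect and reference inhibitor for full effect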
# Settings: recombinant APE1, TAMRA/BHQ-2 abasic DNA cleavage fluorescence; activity change, negative = inhibition: at 65.8 µM (top of the series)
# Outline: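 Quantitative HTS: incision of a TAMRA/BHQ-2 double-stranded substrate bearing a tetrahydrofuran abasic site by 0.75 nM APE1 raises fluorescence. Substrate 50 nM final, added after 15 min compound preincubation at room temperature; progress as third-minus-first kinetic read difference.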
# Potency is the fitted concentration of half-maximal effect.
SMILES,Potency,"activity change, negative = inhibition"
Cc1[nH]ncc1-c1ccccc1Cl,"inconclusive: 3.16 µM [inhibitor, single point]",–
O=C(Nc1cc(C(F)(F)F)ccc1-n1cncn1)c1ccc(Br)cc1,"inconclusive: 50.1 µM [inhibitor, single point]",–
CC(=O)Cc1nsc(NC(=O)c2cc(-c3ccccc3Cl)oc2C)n1,"inconclusive: 25.1 µM [inhibitor, single point]",–
Cc1ccc(-c2nc3ccccc3nc2Cl)cc1,"inconclusive: 35.5 µM [inhibitor, single point]",–
O=C(N/N=C/c1ccc([N+](=O)[O-])cc1)c1cccs1,"inconclusive: 31.6 µM [inhibitor, single point]",–
Cc1cc(/C=N/Nc2ccc([N+](=O)[O-])cn2)c(C)n1-c1cccc(C(=O)O)c1,"inconclusive: 20 µM [inhibitor, single point]",–
Cc1cc(C)c(NC(N)=S)c(C)c1,"inconclusive: 3.98 µM [inhibitor, single point]",–
O=C(Nc1nc(-c2ccccc2)cs1)c1ccco1,inactive,–
Oc1ccccc1/C=N/Nc1cc(N2CCCC2)nc(N2CCCC2)n1,inactive,–
O=C(COC(=O)C1CCN(S(=O)(=O)c2cc([N+](=O)[O-])ccc2Cl)CC1)Nc1ncc(Cl)cc1Cl,"inconclusive: 31.6 µM [inhibitor, single point]",–
Cc1cccc(Nc2nc3c(S(=O)(=O)c4ccccc4)nnn3c3ccccc23)c1,"inconclusive: 14.1 µM [inhibitor, single point]",–
Cc1nc(SCC(C)C)[nH]c(=O)c1Cc1ccccc1,"inconclusive: 0.0018 µM [inhibitor, full curve, poor fit]",–
CC1(C)CC(=O)C2=C(C1)N(c1ccccc1)C(=O)CC2c1ccsc1 (stereo unspecified),"inconclusive: 1 µM [inhibitor, single point]",–
Cc1ccnc(N2C(=O)c3ccccc3C2Nc2cccc(C)c2C)c1 (stereo unspecified),inactive,–
Nc1ncnc2c1ncn2[C@@H]1O[C@H](CNC(=O)[C@@H](N)Cc2ccccc2)[C@@H](O)[C@H]1O,–,inconclusive: -11.4% [inhibitor]
COc1ccc2nc(C)cc(SCC(=O)N/N=C/c3cccc4ccccc34)c2c1,inactive,–
COc1ccc(C2NC(=O)C(C#N)=C(S)N2c2cccc(C)c2)cc1OC (stereo unspecified),"inconclusive: 0.501 µM [inhibitor, full curve, poor fit]",–
Cc1cc(C)c(S(C)(=O)=O)c(Oc2ccccc2C)n1,"inconclusive: 56.2 µM [inhibitor, partial curve, poor fit]",–
O=C(O)c1cc(-n2cccc2)ccc1N1CCOCC1,"inconclusive: 11.2 µM [inhibitor, partial curve, poor fit]",–
COC(=O)c1cn(NC(=O)/C=C/c2cc(OC)ccc2OC)c(=O)c2ccccc12,"inconclusive: 4.47 µM [inhibitor, single point]",–
O=S(=O)(Nc1nc(SCc2ccc(Cl)cc2)n[nH]1)c1ccc(F)cc1,"inconclusive: 6.31 µM [inhibitor, single point]",–
CN(Cc1cnccn1)Cc1nc(Cc2ccccc2F)no1,"inconclusive: 35.5 µM [inhibitor, single point]",–

# Record cards, from the list above:
# `COc1ccc(C2NC(=O)C(C#N)=C(S)N2c2cccc(C)c2)cc1OC` (stereo unspecified) is entered as Potency: inconclusive: 0.501 µM [inhibitor, full curve, poor fit]
# `Cc1cccc(Nc2nc3c(S(=O)(=O)c4ccccc4)nnn3c3ccccc23)c1` is entered as Potency: inconclusive: 14.1 µM [inhibitor, single point]

# The list continues.

SMILES,Potency,"activity change, negative = inhibition"
CCCC1(C(=O)OC)C=C2C(=C(C)C(=O)C2C)CN1 (stereo unspecified),"inconclusive: 2 µM [inhibitor, partial curve]",–
O=C(Cn1ncc(Cl)c(Cl)c1=O)NC1CCS(=O)(=O)C1 (stereo unspecified),"inconclusive: 39.8 µM [inhibitor, single point]",–
O=C(c1cc(-c2ccco2)on1)N1CCc2ccccc2C1,"inconclusive: 28.2 µM [inhibitor, single point]",–
CC(=O)O[C@H]1CC[C@]2(C)[C@H]3CC=C4[C@@H]5[C@@H](C)[C@H](C)CC[C@]5(C(=O)O)CC[C@@]4(C)[C@]3(C)CC[C@H]2C1(C)C,"inconclusive: 20 µM [inhibitor, partial curve]",–
O=C1CCNc2c(Cl)cccc21,"inconclusive: 39.8 µM [inhibitor, single point]",–
Cc1noc(C)c1S(=O)(=O)Nc1ccc(C(=O)N2CCN(c3ccc(F)cc3)CC2)cc1,"inconclusive: 35.5 µM [inhibitor, single point]",–
Cc1ccc(C)c(N=Nc2ccc(O)c3ncccc23)c1,inactive,–
Fc1cccc(CSc2nc3ncc(Cl)cc3[nH]2)c1,inactive,–
C#CCOCCOCCOCCNc1nc(N2CCOCC2)nc(N2CCN(C(=O)[C@H](Cc3ccc(O)cc3)n3cc([C@@H](N)CC(C)C)nn3)CC2)n1,"inconclusive: 50.1 µM [inhibitor, partial curve, poor fit]",–
N#Cc1c(SCC(=O)Nc2nncs2)sc2c(O)cc(=O)[nH]c12,inactive,–
COC(=O)C(CC(C)C)NC(=O)c1ccc(F)cc1 (stereo unspecified),inactive,–
CC(C)N1CCN(Cc2ccncc2)CC1CCO (stereo unspecified),"inconclusive: 39.8 µM [inhibitor, single point]",–
O=C(COC(=O)c1ccccc1)NCc1ccco1,"inconclusive: 20 µM [inhibitor, single point]",–
CN(C)/C=C1/C(=O)N(c2ccc([N+](=O)[O-])cc2)N=C1c1ccccc1,"inconclusive: 0.251 µM [inhibitor, full curve, poor fit]",–
Cc1[nH]n(C(N)=S)c(=O)c1N=Nc1cccc([N+](=O)[O-])c1C,inactive,–
NS(=O)(=O)c1cccc(NC(=O)COC(=O)/C=C/c2ccco2)c1,"inconclusive: 39.8 µM [inhibitor, single point]",–
COC(=O)[C@H](Cc1ccccc1)NC(=O)[C@@]1(C)C[C@@H]1[C@@H](NC(=O)OCc1ccccc1)c1ccccc1,"inconclusive: 5.62 µM [inhibitor, single point]",–
CCCCCOc1ccc(C(O)C(CN2CCOCC2)c2ccccc2)cc1 (stereo unspecified),inactive,–
O=C(Nc1ccc(F)cc1)c1ccc2nsnc2c1,"inconclusive: 22.4 µM [inhibitor, single point]",–
COc1ccc(C(c2nnnn2Cc2cccs2)N2CCN(c3ccccc3F)CC2)cc1OC (stereo unspecified),"inconclusive: 44.7 µM [inhibitor, single point]",–
c1csc(CNc2ncnc3ccc(-c4ccoc4)cc23)c1,"inconclusive: 35.5 µM [inhibitor, single point]",–
CCOC(=O)COc1ccccc1/C=C\[N+](=O)[O-],inactive,–

SMILES,Potency,"activity change, negative = inhibition"
CCCCNC(=O)c1onc(CSc2cc(C)ccc2C)c1C(=O)O,inactive,–
CC(C)OCCCNC(=O)CN1C(=O)/C(=C/c2ccccc2)Sc2ccccc21,"inconclusive: 44.7 µM [inhibitor, single point]",–
COc1ccc(C(c2nnnn2Cc2ccccc2)N2CCN(c3ccccc3)CC2)cc1 (stereo unspecified),"inconclusive: 44.7 µM [inhibitor, single point]",–
CCS(=O)(=O)N1Cc2ccccc2CC1C(=O)N1CCN(c2ccccc2)CC1 (stereo unspecified),inactive,–
CC(C)(C)C(=O)[C@@H]1[C@@H]2C(=O)N(Cc3ccccc3)C(=O)[C@@H]2[C@H]2c3ccccc3C=CN12,"inconclusive: 35.5 µM [inhibitor, single point]",–
CCN(CC)S(=O)(=O)c1ccc(C(=O)NC(=S)N(CCC#N)Cc2cccnc2)cc1,inactive,–
COc1ccc(-c2nnc(Nc3nc4c(OC)cccc4s3)o2)c(OC)c1,"inconclusive: 22.4 µM [inhibitor, single point]",–
Cc1ccccc1NC(=O)COC(=O)c1c(-c2ccccc2)noc1C,inactive,–
COC(=O)[C@@H]1[C@@H]2C[C@H]3c4[nH]c5cc(OC)ccc5c4CCN3C[C@@H]2C[C@H](OC(=O)c2cc(OC)c(OC)c(OC)c2)[C@H]1OC,inactive,–
Cc1nc2nc(-c3ccc(F)cc3)cn2nc1C,inactive,–
COc1ccc(Cl)cc1CSc1n[nH]c(C)n1,"inconclusive: 3.16 µM [inhibitor, single point]",–
COc1ccc(N2Cc3cccc(C(=O)N4CCN(C(=O)c5ccco5)CC4)c3C2=O)cc1,active: 10.6 µM,–
COc1ccc(CCN2C(=O)C3C4CC(C5C(C(=O)O)=NOC45)C3C2=O)cc1OC (stereo unspecified),"inconclusive: 0.01 µM [inhibitor, full curve]",–
Cc1nn(-c2ccccc2)c2nc(-c3ccco3)cc(C(=O)O)c12,"inconclusive: 25.1 µM [inhibitor, partial curve]",–
O=C(COC(=O)CCC(=O)c1cccs1)NC(=O)c1ccc(OC(F)F)cc1,"inconclusive: 20 µM [inhibitor, single point]",–
C[C@@H](O)[C@@H]1NC(=O)c2cc([N+](=O)[O-])cc(I)c2NCC[C@@H](C(N)=O)NC(=O)CNC1=O,"inconclusive: 3.16 µM [inhibitor, partial curve, poor fit]",–
CCN(C(=O)COC(=O)c1cccnc1Nc1ccccc1F)C1CCS(=O)(=O)C1 (stereo unspecified),"inconclusive: 0.126 µM [inhibitor, partial curve, poor fit]",–
COC(=O)c1[nH]c2ccccc2c1NC(=O)c1c(F)cccc1F,"inconclusive: 3.98 µM [inhibitor, single point]",–
Cc1ccc2nsnc2c1S(=O)(=O)Nc1cccc2cccnc12,inactive,–
O=C(NCc1ccccc1)c1ccc(S(=O)(=O)C(F)F)cc1,"inconclusive: 2.51 µM [inhibitor, single point]",–
Cc1ccc2nc(N/N=C\c3ccc([N+](=O)[O-])o3)nc(-c3ccccc3)c2c1,"inconclusive: 31.6 µM [inhibitor, single point]",–
Cc1ccc(Oc2cc([N+](=O)[O-])cc3c2C(=O)Nc2ccccc2O3)cc1,"inconclusive: 31.6 µM [inhibitor, single point]",–

# Reference: PubChem BioAssay AID2517 (National Center for Advancing Translational Sciences (NCATS), 2010)
